The values that follow come from PMC4342346.

These are yes or no findings as the source states them, for the method shown. Binding seen in cells or lysates may run through a third protein. Binding can be weak; no strength is given.

The target of this assay is Rp1-D21 (maize). Kind of assay: co-IP; EGFP- and 3×HA-tagged constructs transiently co-expressed in N. benthamiana, leaves collected at 30 hpi; extract in 50 mM HEPES pH 7.5, 50 mM NaCl, 10 mM EDTA, 0.5% Triton, 4 mM DTT; immunoprecipitated with anti-GFP microbeads 3 hrs at 4°C, washed with 150 mM NaCl buffer; blots with anti-GFP and anti-HA.

As for Rp1-D (from UniProt Q9SWU0), the binding result is “no binding”. With Rp1-dp2 (from UniProt A0A0D3MN54), the binding result is “binds”.
